Experimental findings from article doi:10.1101/2025.09.11.675682 are described below.

Amino acid sequences for entries named in this document (tags omitted). A change or cut given only in a name is not applied to a line headed by its entry.
UniProt Q13094: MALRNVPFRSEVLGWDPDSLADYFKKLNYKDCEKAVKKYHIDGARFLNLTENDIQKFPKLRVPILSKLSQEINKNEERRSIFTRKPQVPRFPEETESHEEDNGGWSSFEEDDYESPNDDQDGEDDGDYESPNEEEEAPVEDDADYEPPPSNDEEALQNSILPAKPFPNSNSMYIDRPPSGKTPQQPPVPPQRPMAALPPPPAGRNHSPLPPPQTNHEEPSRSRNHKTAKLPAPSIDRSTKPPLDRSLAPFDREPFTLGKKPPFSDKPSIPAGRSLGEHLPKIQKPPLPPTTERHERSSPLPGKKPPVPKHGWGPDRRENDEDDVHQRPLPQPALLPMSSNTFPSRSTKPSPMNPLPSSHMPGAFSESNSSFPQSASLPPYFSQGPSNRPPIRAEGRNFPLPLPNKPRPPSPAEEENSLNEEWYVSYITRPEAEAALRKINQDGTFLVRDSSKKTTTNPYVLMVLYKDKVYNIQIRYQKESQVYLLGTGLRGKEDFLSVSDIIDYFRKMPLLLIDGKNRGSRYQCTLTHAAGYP

These are yes or no findings as the source states them, for the method shown.

The assay addresses T1, PLC-γ1 (Phospholipase C-γ1), 1–1219 (UniProt P19174).
T1 sequence: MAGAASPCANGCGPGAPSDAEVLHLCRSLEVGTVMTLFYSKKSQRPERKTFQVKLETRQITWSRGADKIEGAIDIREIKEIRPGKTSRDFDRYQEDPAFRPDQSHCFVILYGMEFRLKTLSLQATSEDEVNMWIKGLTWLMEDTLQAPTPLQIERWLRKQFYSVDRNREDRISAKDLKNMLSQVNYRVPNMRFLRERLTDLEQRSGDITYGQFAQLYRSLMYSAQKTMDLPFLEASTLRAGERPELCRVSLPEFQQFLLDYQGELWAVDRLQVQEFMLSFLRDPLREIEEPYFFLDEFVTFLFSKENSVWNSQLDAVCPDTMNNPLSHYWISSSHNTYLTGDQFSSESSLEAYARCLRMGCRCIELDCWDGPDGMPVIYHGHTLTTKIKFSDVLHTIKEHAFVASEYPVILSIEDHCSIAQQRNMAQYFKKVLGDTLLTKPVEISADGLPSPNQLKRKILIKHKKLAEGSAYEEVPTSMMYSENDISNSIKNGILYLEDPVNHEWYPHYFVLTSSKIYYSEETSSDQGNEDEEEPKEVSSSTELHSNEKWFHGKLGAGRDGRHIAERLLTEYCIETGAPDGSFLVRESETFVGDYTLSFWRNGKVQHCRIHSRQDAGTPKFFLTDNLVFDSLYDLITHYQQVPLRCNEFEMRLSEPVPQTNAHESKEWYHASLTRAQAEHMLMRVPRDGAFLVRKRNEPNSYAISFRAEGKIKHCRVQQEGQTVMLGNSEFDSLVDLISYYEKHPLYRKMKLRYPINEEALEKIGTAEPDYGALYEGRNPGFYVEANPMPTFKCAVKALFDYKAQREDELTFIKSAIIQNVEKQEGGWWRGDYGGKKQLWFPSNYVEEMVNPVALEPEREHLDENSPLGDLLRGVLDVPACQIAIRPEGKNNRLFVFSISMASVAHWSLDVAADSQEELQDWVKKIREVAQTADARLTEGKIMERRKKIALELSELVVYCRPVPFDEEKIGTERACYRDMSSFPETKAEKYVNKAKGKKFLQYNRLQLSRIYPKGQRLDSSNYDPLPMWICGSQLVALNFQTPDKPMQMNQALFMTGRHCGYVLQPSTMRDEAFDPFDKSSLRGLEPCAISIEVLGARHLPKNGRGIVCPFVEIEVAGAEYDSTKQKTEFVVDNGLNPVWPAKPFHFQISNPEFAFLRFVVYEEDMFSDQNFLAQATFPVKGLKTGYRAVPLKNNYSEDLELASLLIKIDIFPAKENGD
The experiment in a line: ITC; VP-ITC; 5°C; 20 mM Hepes (pH 7.4), 100 mM NaCl, 0.1 mM DTT; 4 μM in the cell, 40 μM in the syringe; single binding site fit with 1:1 stoichiometry; 3 independent experiments; both purified. (In general: In ITC the heat of successive injections is recorded.)

Take “SLP-76^NA polypeptide (aa 103–258, no affinity mutant) (from UniProt Q13094) (domain or fragment)”: the binding entry is “no binding (tested: 4 μM in the cell, 40 μM in the syringe)”.
